In patent publication US20240279618A1, “RECEPTOR TYROSINE KINASE AGONIST, COMPOSITION FOR CELL CULTURE MEDIUM, AND […] MAINTENANCE COMPOSITION” (SEKISUI CHEMICAL CO., LTD., priority 2021, published 2024):
These are yes or no findings as the source states them, for the method shown. Some results given as binding are weak or reduced against the parent protein; the word gives no strength. For part of these data: Where a sequence is shown, tags or fusion partners need not be part of it.

Chains of the proteins cited; added tags and fusions are not shown. Residues count along the entry.
FGFR1-DIIDIII (FGFR1 extracellular domain, DII and DIII domains) (P11362, residues 142-365): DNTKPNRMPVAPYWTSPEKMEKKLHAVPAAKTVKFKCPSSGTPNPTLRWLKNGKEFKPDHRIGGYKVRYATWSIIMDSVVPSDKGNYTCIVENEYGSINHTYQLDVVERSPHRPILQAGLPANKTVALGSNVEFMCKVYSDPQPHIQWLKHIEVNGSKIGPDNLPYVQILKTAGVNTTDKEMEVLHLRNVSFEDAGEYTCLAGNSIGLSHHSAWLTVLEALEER
FGFR1-DIII (FGFR1 extracellular domain, DIII domain) (P11362, residues 251-365): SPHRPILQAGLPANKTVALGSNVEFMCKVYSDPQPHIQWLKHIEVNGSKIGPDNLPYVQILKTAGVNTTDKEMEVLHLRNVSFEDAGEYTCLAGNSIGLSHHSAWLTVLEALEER

How the values were obtained:
[1] = molecular target: FGFR1-DIIDIII (FGFR1 extracellular domain, DII and DIII domains) (human) (UniProt P11362); test: BLI (Octet 384); VHH Clone #1 immobilised on an Anti-Penta-HIS sensor, FGFR1-DIIDIII in solution, 120 s association and 120 s dissociation [C]
FGFR4-Fc = molecular target: T1, FGFR4-Fc (human, UniProt P22455 22-369, limits assumed); test: SPR (Biacore T200, CAP single-cycle kinetics), as in Example 5; FGFR4-Fc on the chip, VHH Clone #1 injected in rising concentrations
T1 construct: not shown: Fc part
T1 sequence (looked up): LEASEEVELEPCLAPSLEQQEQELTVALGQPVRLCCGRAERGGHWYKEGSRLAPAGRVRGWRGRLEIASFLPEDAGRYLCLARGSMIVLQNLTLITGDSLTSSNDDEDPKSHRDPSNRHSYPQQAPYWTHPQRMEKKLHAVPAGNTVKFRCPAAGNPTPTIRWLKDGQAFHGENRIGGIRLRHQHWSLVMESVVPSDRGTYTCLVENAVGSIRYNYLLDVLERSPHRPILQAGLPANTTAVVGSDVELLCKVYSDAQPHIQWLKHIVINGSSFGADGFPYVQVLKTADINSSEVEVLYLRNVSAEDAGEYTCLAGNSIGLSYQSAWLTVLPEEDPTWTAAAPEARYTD

[2] = molecular target: FGFR1-DIII (FGFR1 extracellular domain, DIII domain) (human) (UniProt P11362); test: BLI (Octet 384); VHH Clone #1 immobilised on an Anti-Penta-HIS sensor, FGFR1-DIII in solution, 120 s association and 120 s dissociation [B]

Measured: binding

B1: VHH Clone #1 (VHH monomer Clone #1) (VHH)
VHH: QLQLVESGGGSVQAGGSLRLSCAASRSLSRFNVWTWYRQAPVKQRELVASITKSGDTNYAESVKGRFIISRDDDKNTVYLQMNNLKSEDTGIYYCAGSYYSGSYLYPSPGGFSVWGQGTQVTVSS
notes: also called VHH #1; FGFR #1; not shown: C-terminal His tag (purified on Ni Sepharose, captured on Anti-Penta-HIS sensor)
binds: [1] | FGFR4-Fc | [2]
